The target of the experiment is T1, J-domain of P. falciparum Hsp40 cochaperone PFA0660w (PFA0660wJ), aa 81-148 (P. falciparum) (UniProt Q8I2E1).
T1 sequence: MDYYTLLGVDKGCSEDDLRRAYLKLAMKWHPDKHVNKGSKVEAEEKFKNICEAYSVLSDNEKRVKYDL
Nature of the experiment: NMR titration; 15N-labelled PFA0660wJ titrated with unlabelled chaperone; HSQC peak intensity changes; 25°C; 20 mM sodium phosphate pH 7.4, 150 mM NaCl, 2 mM DTT; both purified.

These are yes or no findings as the source states them, for the method shown. Binding calls can cover weak binding; strength is not graded here.

Take “Plasmodium falciparum Hsp70-x (PfHsp70-x), full-length construct aa 25-679 (from UniProt K7NTP5)”: the binding result was “binds”.

The values above are taken from publication PMC6894070, “The Plasmodium falciparum Hsp70-x chaperone assists the heat stress response of the malaria parasite” (The FASEB Journal, 2019).
